# Assay results as given in the supplement of paper PMC9262897, “Low-cost anti-mycobacterial drug discovery using engineered E. coli” (Nature Communications, 2022).
# Structures can show the parent of a compound that is named as a salt. ± gives the standard deviation of the averaged measurements. Shown are results outside the selection of lowest values, which stands elsewhere.
# Tested on: E. coli TESEC Alr+ wild-type control
# Assay: growth (OD600 after 10 h); higher = more growth (less inhibition)
# Conditions: compound 0.1 mM; raw OD600 reference: median of DMSO wells 0.49, cell-free background 0.052
# Description: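 TESEC Mtb Alr E. coli (ΔaraC ΔtolC ΔentC Δalr ΔdadX, arabinose-inducible Mtb Alr) or the Alr+ wild-type control strain, grown in defined M9-fructose medium without D-alanine in 96-well plates with Prestwick library compounds at 0.1 mM and 1% DMSO. Low Alr induction is 0.1 µM arabinose and high induction is 10 mM arabinose.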
row,Compound,growth
1,"CN1[C@@H]2CC[C@H]1C[C@@H](OC(=O)C(O)c1ccccc1)C2 (mixture of isomers) [Homatropine hydrobromide (R,S)]",0.538 ± 0.018
